Some of the results follow.

Protein sequences, listed by entry. Tags and fused reporters are not part of them. Lines headed by an entry give the natural chain unless they say otherwise; changes in a name come on top.
UniProt P05423: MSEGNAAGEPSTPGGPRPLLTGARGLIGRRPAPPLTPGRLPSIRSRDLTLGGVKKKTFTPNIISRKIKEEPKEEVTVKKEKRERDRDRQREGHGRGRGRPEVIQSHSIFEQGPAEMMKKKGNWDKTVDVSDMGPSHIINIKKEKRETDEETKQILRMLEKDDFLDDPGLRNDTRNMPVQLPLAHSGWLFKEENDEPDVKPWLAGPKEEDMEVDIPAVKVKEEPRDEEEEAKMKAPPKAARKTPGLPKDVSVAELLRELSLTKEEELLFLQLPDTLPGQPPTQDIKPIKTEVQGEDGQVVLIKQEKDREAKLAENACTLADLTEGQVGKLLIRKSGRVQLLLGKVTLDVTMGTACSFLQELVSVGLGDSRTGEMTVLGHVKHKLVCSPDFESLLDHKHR
UniProt P11086: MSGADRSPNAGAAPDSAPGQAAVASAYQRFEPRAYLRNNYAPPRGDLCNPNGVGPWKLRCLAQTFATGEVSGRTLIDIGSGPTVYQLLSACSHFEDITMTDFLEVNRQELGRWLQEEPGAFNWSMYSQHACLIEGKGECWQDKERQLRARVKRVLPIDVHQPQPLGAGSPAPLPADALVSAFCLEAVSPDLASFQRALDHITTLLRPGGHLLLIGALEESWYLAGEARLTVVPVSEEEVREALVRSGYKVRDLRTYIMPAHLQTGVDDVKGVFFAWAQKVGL
UniProt P53350, whole entry, looked up: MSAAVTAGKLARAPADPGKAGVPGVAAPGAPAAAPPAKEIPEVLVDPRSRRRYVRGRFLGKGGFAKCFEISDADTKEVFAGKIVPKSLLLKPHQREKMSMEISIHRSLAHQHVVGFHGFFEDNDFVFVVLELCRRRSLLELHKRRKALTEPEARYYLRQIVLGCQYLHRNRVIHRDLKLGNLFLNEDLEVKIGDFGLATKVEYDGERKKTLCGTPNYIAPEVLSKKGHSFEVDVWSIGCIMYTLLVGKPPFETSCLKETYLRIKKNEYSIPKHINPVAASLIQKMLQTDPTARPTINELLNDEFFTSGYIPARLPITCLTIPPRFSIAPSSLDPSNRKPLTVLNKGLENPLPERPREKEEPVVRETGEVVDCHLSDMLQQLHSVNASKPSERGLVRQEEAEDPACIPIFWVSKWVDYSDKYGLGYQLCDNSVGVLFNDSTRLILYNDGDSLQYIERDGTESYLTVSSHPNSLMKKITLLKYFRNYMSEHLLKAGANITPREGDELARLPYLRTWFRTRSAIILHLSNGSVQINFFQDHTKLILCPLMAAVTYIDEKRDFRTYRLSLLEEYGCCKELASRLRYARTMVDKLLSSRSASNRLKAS
UniProt Q8IY26: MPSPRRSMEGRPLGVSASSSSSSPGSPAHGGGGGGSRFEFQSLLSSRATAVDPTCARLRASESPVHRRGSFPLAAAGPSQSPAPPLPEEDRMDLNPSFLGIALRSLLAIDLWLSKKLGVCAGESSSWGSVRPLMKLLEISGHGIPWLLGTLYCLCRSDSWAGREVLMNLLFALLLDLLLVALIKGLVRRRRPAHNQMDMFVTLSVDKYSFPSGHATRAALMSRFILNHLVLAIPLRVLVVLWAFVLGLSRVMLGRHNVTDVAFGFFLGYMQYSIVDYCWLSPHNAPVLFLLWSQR
UniProt Q9Y535: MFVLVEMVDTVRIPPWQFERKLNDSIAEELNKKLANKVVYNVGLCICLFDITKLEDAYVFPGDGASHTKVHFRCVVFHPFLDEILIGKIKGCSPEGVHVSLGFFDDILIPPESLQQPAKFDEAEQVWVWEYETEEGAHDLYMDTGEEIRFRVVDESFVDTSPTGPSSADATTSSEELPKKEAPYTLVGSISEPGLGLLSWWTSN
UniProt Q9H9Y6, whole entry, looked up: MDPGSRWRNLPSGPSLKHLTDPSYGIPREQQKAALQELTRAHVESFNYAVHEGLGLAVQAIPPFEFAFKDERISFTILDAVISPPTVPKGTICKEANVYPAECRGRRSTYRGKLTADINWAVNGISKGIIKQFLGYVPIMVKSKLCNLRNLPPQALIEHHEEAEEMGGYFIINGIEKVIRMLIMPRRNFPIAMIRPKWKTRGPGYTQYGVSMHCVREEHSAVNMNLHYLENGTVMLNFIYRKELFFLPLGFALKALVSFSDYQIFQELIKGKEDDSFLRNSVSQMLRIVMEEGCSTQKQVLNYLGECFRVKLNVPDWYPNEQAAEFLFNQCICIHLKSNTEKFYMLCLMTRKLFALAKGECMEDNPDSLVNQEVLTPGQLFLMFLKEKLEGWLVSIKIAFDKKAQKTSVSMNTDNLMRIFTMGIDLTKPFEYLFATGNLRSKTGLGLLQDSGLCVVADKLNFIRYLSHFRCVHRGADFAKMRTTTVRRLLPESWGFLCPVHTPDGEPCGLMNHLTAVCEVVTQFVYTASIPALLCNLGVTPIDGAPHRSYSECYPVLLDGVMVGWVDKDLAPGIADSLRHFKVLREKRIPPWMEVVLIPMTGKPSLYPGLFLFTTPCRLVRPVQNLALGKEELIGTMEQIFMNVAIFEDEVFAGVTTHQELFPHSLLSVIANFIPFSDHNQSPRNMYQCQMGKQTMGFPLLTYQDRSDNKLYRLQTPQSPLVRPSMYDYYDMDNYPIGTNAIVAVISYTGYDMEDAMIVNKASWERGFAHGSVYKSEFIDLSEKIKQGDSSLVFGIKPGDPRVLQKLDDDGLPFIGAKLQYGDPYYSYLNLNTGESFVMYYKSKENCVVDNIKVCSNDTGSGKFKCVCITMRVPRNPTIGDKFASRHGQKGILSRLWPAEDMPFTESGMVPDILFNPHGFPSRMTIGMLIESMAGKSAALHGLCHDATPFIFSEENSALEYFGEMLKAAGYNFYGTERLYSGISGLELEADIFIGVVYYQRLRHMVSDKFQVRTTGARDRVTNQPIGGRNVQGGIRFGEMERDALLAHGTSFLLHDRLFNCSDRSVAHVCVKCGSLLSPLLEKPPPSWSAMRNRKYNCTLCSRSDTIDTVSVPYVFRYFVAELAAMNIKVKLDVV
UniProt Q9Y6A1: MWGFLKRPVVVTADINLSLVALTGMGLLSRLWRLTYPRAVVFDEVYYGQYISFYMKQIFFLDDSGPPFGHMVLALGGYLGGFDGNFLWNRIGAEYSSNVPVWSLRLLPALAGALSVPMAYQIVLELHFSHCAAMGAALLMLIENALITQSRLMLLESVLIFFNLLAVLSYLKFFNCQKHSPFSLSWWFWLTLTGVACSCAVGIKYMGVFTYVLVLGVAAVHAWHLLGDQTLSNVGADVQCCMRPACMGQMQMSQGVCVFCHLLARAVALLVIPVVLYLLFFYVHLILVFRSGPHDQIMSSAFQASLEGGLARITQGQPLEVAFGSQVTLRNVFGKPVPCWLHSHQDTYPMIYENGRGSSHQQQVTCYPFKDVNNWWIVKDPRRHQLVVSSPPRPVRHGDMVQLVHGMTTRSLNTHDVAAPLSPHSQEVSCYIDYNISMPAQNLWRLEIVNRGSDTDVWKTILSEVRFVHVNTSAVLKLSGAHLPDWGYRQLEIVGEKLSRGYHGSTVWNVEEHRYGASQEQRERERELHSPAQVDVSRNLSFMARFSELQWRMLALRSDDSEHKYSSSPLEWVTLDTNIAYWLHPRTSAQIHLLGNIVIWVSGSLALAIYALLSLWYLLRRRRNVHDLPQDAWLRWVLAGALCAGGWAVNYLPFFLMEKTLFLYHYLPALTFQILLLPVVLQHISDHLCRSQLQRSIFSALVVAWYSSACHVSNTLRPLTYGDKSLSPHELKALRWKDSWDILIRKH
UniProt Q6T4P5: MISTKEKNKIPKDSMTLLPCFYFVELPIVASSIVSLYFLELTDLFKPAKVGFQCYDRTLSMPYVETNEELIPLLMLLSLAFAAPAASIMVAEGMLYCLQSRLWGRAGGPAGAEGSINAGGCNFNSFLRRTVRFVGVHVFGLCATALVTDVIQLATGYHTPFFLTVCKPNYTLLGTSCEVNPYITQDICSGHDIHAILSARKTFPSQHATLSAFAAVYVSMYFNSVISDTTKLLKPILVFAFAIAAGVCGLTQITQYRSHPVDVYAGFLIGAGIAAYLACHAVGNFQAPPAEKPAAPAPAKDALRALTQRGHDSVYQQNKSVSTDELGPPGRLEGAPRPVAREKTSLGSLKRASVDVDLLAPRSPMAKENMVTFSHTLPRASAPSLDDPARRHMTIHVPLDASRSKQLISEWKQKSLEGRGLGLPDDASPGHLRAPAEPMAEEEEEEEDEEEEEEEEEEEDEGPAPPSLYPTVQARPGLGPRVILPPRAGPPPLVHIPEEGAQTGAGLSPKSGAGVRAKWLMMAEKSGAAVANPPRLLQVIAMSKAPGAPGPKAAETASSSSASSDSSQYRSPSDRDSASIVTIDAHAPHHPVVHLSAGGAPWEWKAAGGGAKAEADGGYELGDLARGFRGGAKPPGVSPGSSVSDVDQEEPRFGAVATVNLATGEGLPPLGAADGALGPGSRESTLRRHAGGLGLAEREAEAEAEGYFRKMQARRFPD
UniProt O43157, whole entry, looked up: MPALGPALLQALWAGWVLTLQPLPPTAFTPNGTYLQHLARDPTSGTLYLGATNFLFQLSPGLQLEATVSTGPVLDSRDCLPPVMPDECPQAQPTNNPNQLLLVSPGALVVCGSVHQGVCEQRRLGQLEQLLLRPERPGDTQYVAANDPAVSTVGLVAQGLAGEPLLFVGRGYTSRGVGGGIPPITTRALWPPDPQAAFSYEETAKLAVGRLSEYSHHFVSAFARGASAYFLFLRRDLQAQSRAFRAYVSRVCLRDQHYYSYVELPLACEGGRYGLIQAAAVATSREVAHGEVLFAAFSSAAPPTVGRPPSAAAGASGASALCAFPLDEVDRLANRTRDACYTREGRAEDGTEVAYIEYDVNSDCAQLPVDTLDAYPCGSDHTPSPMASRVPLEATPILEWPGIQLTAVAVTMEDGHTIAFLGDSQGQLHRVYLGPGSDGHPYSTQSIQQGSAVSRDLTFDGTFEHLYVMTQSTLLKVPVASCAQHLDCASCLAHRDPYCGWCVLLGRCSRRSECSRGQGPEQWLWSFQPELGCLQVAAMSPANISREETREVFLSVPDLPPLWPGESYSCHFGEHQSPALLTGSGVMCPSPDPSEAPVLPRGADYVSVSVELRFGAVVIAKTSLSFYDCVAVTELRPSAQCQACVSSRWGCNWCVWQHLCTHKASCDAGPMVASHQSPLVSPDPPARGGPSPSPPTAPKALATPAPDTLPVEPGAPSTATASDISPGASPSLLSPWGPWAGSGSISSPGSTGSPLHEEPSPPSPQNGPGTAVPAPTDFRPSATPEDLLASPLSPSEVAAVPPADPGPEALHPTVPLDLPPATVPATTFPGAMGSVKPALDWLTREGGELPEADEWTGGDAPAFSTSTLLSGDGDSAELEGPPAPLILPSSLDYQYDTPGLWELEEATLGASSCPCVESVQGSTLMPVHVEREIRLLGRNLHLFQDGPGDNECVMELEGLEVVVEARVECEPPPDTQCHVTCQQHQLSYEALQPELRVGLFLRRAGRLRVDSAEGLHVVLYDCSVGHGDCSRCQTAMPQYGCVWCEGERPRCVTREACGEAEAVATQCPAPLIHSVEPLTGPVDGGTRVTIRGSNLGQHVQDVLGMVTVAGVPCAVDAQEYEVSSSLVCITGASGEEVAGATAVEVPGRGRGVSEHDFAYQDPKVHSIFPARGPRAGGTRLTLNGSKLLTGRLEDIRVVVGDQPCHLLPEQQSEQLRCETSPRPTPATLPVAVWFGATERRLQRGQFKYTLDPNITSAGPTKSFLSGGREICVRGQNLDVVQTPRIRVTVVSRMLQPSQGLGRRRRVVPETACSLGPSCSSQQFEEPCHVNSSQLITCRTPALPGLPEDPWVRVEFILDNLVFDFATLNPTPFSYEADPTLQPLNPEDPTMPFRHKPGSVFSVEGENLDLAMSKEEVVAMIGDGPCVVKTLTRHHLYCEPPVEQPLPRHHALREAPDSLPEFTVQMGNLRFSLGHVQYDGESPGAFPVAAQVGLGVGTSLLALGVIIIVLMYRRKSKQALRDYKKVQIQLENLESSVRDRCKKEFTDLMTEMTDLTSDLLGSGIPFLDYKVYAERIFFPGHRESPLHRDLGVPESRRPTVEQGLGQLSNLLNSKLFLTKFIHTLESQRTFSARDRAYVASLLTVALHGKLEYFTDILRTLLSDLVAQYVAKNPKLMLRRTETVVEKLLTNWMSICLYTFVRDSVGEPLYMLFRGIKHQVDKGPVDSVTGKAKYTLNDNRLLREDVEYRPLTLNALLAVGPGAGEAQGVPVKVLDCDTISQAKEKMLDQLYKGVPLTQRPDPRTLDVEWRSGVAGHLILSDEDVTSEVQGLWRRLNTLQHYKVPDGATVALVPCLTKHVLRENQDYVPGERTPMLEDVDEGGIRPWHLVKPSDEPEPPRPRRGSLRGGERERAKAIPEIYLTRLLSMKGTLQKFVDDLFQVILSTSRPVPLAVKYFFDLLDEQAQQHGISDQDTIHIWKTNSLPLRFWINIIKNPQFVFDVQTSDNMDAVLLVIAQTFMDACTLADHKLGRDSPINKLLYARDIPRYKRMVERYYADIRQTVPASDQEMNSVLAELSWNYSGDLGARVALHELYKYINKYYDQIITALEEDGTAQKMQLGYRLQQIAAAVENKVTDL

Compound in the first assay: CC[C@@H]1C(=O)N(C)c2cnc(Nc3ccc(C(=O)N[C@H]4CC[C@H](N5CCN(CC6CC6)CC5)CC4)cc3OC)nc2N1C(C)C [volasertib]
The assay can be described thus: log2 fold change, soluble protein after heating vs DMSO (PISA); higher = thermal stabilisation; K562 cells, 10 uM, 30 min; active = over 0.2 and 3.5 SD of the protein, either way, in both replicates (recomputed). Put shortly: (§1)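 Values are thermal stability changes relative to control samples and are taken from duplicates. They are stated as log2 fold changes. Before quantification by TMTpro 16plex LC-MS/MS with equalised channel sums, K562 cells at 2×10^6 cells/mL were treated with 10 μM compound for 30 min, heated in aliquots for 3 min across 48°C-58°C, pooled, extracted in PBS with 0.5% NP-40 at 4°C, and centrifuged at 21,000xg for 90 min to give the soluble supernatant.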
Turning to POLR3D (UniProt P05423), the log2 fold change was active: -0.394.
Consider PNMT (UniProt P11086), for which the log2 fold change is inactive: -0.191.
As to PLK1 (UniProt P53350), the log2 fold change was active: -2.06.
The same measure, in the same setting: as for PLG (UniProt P00747), the figure is inactive: 0.054; as for PPIG (UniProt Q13427), inactive: -0.374; as for PLPP6 (UniProt Q8IY26), inactive: -0.001.
Same read-out and setting: as for POLR1E isoform 1 (UniProt Q9GZS1), the figure is inactive: 0.016; as for POLR2F (UniProt P61218), inactive: 0.12.
Same read-out and setting: in the case of POMGNT2 (UniProt Q8NAT1) it was inactive: -0.042; in that of PLEKHJ1 (UniProt Q9NW61), inactive: 0.114.
With POLR3H (UniProt Q9Y535), the log2 fold change was inactive: -0.099.

Compound in the next assay: CC[C@H](C)N1C=C(C2=C(C=C(C=C21)C3=CN=C(C=C3)N4CCNCC4)C(=O)NCC5=C(C=C(NC5=O)C)C)C
The description is as above. A digest of the protocol:
as §1
As for POLR1B isoform 3 (UniProt Q9H9Y6), the log2 fold change was inactive: 0.173.
As for POLR3D (UniProt P05423), the log2 fold change was inactive: 0.107.
For the target POT1 (UniProt Q9NUX5), the log2 fold change is inactive: -0.058.
Same read-out and setting: as for PLK1 (UniProt P53350), the figure is inactive: 0.049.
As to PLG (UniProt P00747), the log2 fold change is inactive: 0.11.
Regarding PMS2CL (UniProt Q68D20), the log2 fold change is inactive: -0.126.
For the target POLQ (UniProt O75417), the log2 fold change was inactive: -0.063.
On the same count and under the same terms, in the case of PLSCR3 (UniProt Q9NRY6) it was inactive: -0.026.
For PMVK (UniProt Q15126), the log2 fold change was inactive: 0.069.
Take PLPP6 (UniProt Q8IY26): the log2 fold change was inactive: -0.083.
As for POM121C (UniProt A8CG34), the log2 fold change is inactive: 0.231.
Take POLR2F (UniProt P61218): the log2 fold change is inactive: -0.216.
On the same count and under the same terms, as for POLR3H (UniProt Q9Y535), the figure is inactive: 0.068.

Compound in the next assay: CC[C@H](C)[C@@H](C(=O)N[C@@H]([C@@H](C)O)C(=O)N[C@@H](CC(C)C)C(=O)[C@]1(CO1)C)NC(=O)[C@H]([C@@H](C)CC)N(C)C(=O)C [epoxomicin]
Described as above. A digest of the protocol: as §1
POLRMT (UniProt O00411): the log2 fold change is inactive: -0.031.
The same measure, in the same setting: as for POLR1B isoform 3 (UniProt Q9H9Y6), the figure is inactive: -0.134.
The same measure, in the same setting: in the case of POLR3D (UniProt P05423) it was inactive: -0.066; in that of POT1 (UniProt Q9NUX5), inactive: 0.005.
On the same count and under the same terms, as for PLXNA3 (UniProt P51805), the figure is inactive: 0.021; as for PLK1 (UniProt P53350), inactive: 0.044; as for PLS3 (UniProt H7C4N2), inactive: -0.099.
With POMT1 (UniProt Q9Y6A1), the log2 fold change is inactive: -0.028.
On the same count and under the same terms, in the case of PMS2CL (UniProt Q68D20) it was inactive: 0.126; in that of PMVK (UniProt Q15126), inactive: 0.003; in that of PLPPR3 isoform 3 (UniProt Q6T4P5), inactive: 0.129.
For PLPP6 (UniProt Q8IY26), the log2 fold change is inactive: 0.039.
As for PPFIA3 (UniProt O75145), the log2 fold change is inactive: 0.197.
The same measure, in the same setting: in the case of POLR2F (UniProt P61218) it was inactive: 0.201; in that of PLEKHJ1 (UniProt Q9NW61), inactive: -0.21.
Same read-out and setting: as for PLXNB1 (UniProt O43157), the figure is inactive: 0.044; as for POLR3H (UniProt Q9Y535), inactive: -0.054.

The record behind these values is the supplement of paper PMC10849652.
